Measurements reported in PubChem BioAssay AID504784 (Drosophila RNAi Screening Center, 2011).

Screen: 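Search for regulators of lipid droplet storage in oleate-fed fly cells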 (primary screen)
System: Drosophila Kc167 embryonic cells
Reagents: long dsRNA against Drosophila genes, about 250 ng dsRNA per well
Time to read-out: 4 days
Challenge: cells fed 400 µM oleic acid bound to BSA
Detection: 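Microscope images give a droplet-to-nucleus area ratio, taken as log and converted to a screen-wide B-score; higher values mean greater lipid storage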
Direction: droplet/nuclear area B-score: higher = more stored lipid (overstorage)
The deposit covers about 17,000 reagents; shown is an unselected part of those with a known target gene and a result. 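Each column is one replicate's B-score; the combined score over replicates was not deposited, so single values may mislead.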 Names joined by + are all predicted targets of the reagent. Not all columns of the deposit are shown.

gene | amplicon | droplet/nuclear area B-score, replicate 1 | droplet/nuclear area B-score, replicate 2
udt (undicht) | DRSC14214 | -2.09 | -0.683
Rad17 | DRSC16811 | 1.06 | 4.36
Cpr31A (Cuticular protein 31A) | DRSC02779 | -0.0285 | -0.141
CR42546 (pseudo) | DRSC03711 | -1.61 | 1.29
Lamtor2 + CG30120 | DRSC05726 | -1.39 | -0.0122
Lamtor2 + CG30120 | DRSC06922 | -0.0141 | -0.487
Sirt6 (Sirtuin 6) | DRSC16010 | 0.357 | -0.195
CG30495 | DRSC06703 | 0.956 | 0.091
CG1998 | DRSC19829 | -0.24 | 1.54
Gyc88E (Guanylyl cyclase at 88E) | DRSC15547 | 0.981 | -0.911
CG14717 | DRSC14940 | 3.6 | -0.789
CG32719 | DRSC17525 | 0.673 | -1.1
Naa20B (N(alpha)-acetyltransferase 20 B) | DRSC21442 | 1.41 | 0.204
CG14143 | DRSC10146 | 0.962 | 1.53
CAH2 (Carbonic anhydrase 2) | DRSC10746 | -0.305 | -0.454
Lapsyn (Leucine-rich repeat activity-regulated protein at synapses) | DRSC04249 | 1.88 | 1.5
emei | DRSC10897 | -0.032 | -1.22
emei | DRSC22684 | 2.8 | 0.693
INPP5E (Inositol polyphosphate 5-phosphatase E) | DRSC09723 | 0.124 | -0.474
mRpL15 (mitochondrial ribosomal protein L15) | DRSC11771 | 2.54 | 3.01
Adh + Adhr | DRSC01862 | 1.16 | 0.438
Adh + Adhr | DRSC01863 | 0.835 | 0.654
CG13894 | DRSC08364 | 1.03 | 2.4
CG13894 | DRSC23205 | 0.0903 | -0.277
CG30050 | DRSC05342 | -0.482 | 0.908
Sou (Souji) | DRSC04356 | 0.4 | 1.68
CG1307 | DRSC12492 | 0.213 | -0.239
Lis-1 (Lissencephaly-1) | DRSC07459 | -2.02 | 1.4
COX7B (Cytochrome c oxidase subunit 7B) | DRSC10895 | 8.8 | 9.11
unc-45 (uncoordinated 45) | DRSC15449 | 1.38 | 0.992
Nph (Nucleophosmin) | DRSC16342 | 0.496 | -0.225
Irp-1B (Iron regulatory protein 1B) | DRSC16720 | -0.0561 | -0.742
form3 (formin 3) | DRSC10195 | 0.00272 | -0.409
form3 (formin 3) | DRSC10297 | 1.29 | -0.0754
form3 (formin 3) | DRSC11024 | 0.746 | -0.134
Ref1 (RNA and export factor binding protein 1) | DRSC12497 | 1.61 | -0.0108
Ref1 (RNA and export factor binding protein 1) | DRSC22387 | 8.64 | 1.6
Arpc5 (Actin-related protein 2/3 complex, subunit 5) | DRSC00730 | 0.0093 | 0.0111
CG30184 | DRSC22277 | -0.0566 | -0.0316
CG15412 | DRSC00427 | 0.328 | 0.434
Alp2 (Alkaline phosphatase 2) | DRSC04354 | -1.16 | -0.312
CG10348 | DRSC02043 | -0.695 | -1.88
CG10348 | DRSC21908 | 0.139 | 0.834
CG10348 | DRSC23233 | -1.27 | -0.0816
Cisd2 (CDGSH iron sulfur domain 2) | DRSC14904 | -0.648 | 0.635
CG18605 | DRSC06772 | -2.45 | –
I-2 (Inhibitor-2) | DRSC11194 | -1.22 | 0.744
I-2 (Inhibitor-2) | DRSC23300 | -1.2 | 0.186
Past1 (Putative Achaete Scute Target 1) | DRSC16784 | -0.375 | -1.03
spz3 (spatzle 3) | DRSC02391 | -1.94 | -0.545
spz3 (spatzle 3) | DRSC03008 | -0.559 | 0.0404
CG3345 | DRSC00596 | -0.459 | -1.11
mid (midline) | DRSC02977 | 0.598 | 1.53
mid (midline) | DRSC21493 | 1.54 | 0.818
CG33325 | DRSC12699 | 0.0125 | -0.236
wfs1 (wolfram syndrome 1) | DRSC15676 | -0.745 | -0.000403

Only “droplet/nuclear area B-score, replicate 2”, for 3 of the entries above:
Adh + Adhr [DRSC01862]: 0.438
Adh + Adhr [DRSC01863]: 0.654
CG13894 [DRSC08364]: 2.4
